Experimental data published in PubChem BioAssay AID540256 (National Center for Advancing Translational Sciences (NCATS), 2011).
“And” between values parts separate entries of the source, which are not always exact repeats. Identical values can stand only once. In all, about 300,000 compounds went through this assay and about 3,700 (1.2%) were called active. The shares of active, inactive and inconclusive entries below differ from those in the screen. The call rests on the fitted dose curve; tested in HEK293 cells. Potencies beside an inconclusive call are fits to weak or partial responses and may not hold up.

Assay: qHTS for Inhibitors of binding or entry into cells for Lassa Virus; further: nearly all actives have a fitted effect of over 50% in size
Details: Lassa virus pseudotype entry inhibition, cell reporter; series mostly up to 37.9 µM
Potency means the concentration at half of the fitted maximal effect.

Question: For `COc1ccccc1CNCc1cc(Br)ccc1OC`, which Potency is on record?
Answer: Its Potency is inconclusive: 35.5 µM [inhibitor, partial curve, poor fit].

Question: For `CC(C)[C@@]1(NC(=O)[C@@H]2C[C@@H]3c4cccc5[nH]cc(c45)C[C@H]3N(C)C2)O[C@@]2(O)[C@@H]3CCCN3C(=O)[C@H](Cc3ccccc3)N2C1=O`, which Potency is on record?
Answer: The Potency was inconclusive: 18.4 µM [inhibitor, single point] and inconclusive: 29.1 µM [inhibitor, single point].

Question: With `CC(/C=N/NC(=S)Nc1cccc(S(=O)(=O)N(C)C)c1)c1ccccc1` (stereo unspecified) as the molecule, how does the Potency read?
Answer: The Potency was inconclusive: 5.62 µM [inhibitor, partial curve, poor fit].

Question: For `O=C1c2cccc3c([N+](=O)[O-])ccc(c23)C(=O)N1CC1CCCO1` (stereo unspecified), which Potency is on record?
Answer: Its Potency is inconclusive: 2.06 µM [inhibitor, partial curve, poor fit].

Question: Which Potency does the source give for `CCOC(=O)Cc1csc(NC(=O)/C=C/c2cccc(Br)c2)n1` here?
Answer: The Potency was inconclusive: 10 µM [inhibitor, partial curve, poor fit].

Question: Which Potency does the source give for `CCN(CC)CCCNC(=O)Cn1nc(N2CCN(c3ccccc3OC)CC2)ccc1=O` here?
Answer: The Potency was inconclusive: 14.1 µM [activator, single point].

Question: For `CCc1ccccc1NC(=O)c1ccc(OCc2c(C)noc2C)cc1`, which Potency is on record?
Answer: The Potency was inconclusive: 22.4 µM [inhibitor, single point].

Question: For `CN1C(=O)Cc2cc(S(=O)(=O)CCC(=O)Nc3ccccc3)ccc21`, which Potency is on record?
Answer: The Potency was “inactive”.

Question: Which Potency does the source give for `O=C(NNC1=C(C(=O)C(F)(F)F)CCC1)c1cccnc1` here?
Answer: The Potency was “inactive”.

Question: Which Potency does the source give for `CCN1C=C(Cc2ccc(OC)cc2)C2=C(C1)C(c1ccc(OC)cc1)C(C#N)=C(N)O2` (stereo unspecified) here?
Answer: The Potency was inconclusive: 12.6 µM [inhibitor, partial curve, poor fit].

Question: Which Potency does the source give for `CCCOc1ccc(C(=O)Nc2ccc(Cl)cn2)cc1` here?
Answer: The Potency was active: 17.8 µM.

Question: Which Potency does the source give for `CCCSCCCNC(=O)CN1C(=O)COc2ccc(S(=O)(=O)N3CCC(C)CC3)cc21` here?
Answer: Its Potency is “inactive”.

Question: With `Cc1cccc(N2CCN(C(=O)CC(NC(=O)c3ccccc3Cl)c3ccccc3)CC2)c1C` (stereo unspecified) as the molecule, how does the Potency read?
Answer: The Potency was inconclusive: 29.1 µM [inhibitor, single point].

Question: Which Potency does the source give for `O=C(NCCc1ccccn1)c1cc(-c2ccc(Cl)c(Cl)c2Cl)nc2ccccc12` here?
Answer: Its Potency is inconclusive: 35.5 µM [inhibitor, single point].

Question: For `Cc1cc(C(=O)NCC(c2cccs2)N2CCOCC2)ccc1[N+](=O)[O-]` (stereo unspecified), which Potency is on record?
Answer: The Potency was inconclusive: 1.26 µM [activator, single point].

Question: For `CNc1ccc(Br)cc(C(=O)/C=C/c2cc(OC)ccc2OC)c1=O`, which Potency is on record?
Answer: The Potency was inconclusive: 29.1 µM [inhibitor, single point].

Question: With `CC(=O)C1=C(c2ccc(Cl)c(Cl)c2)N(C(C)=O)n2c(C)nnc2S1` as the molecule, how does the Potency read?
Answer: The Potency was inconclusive: 35.5 µM [inhibitor, single point].

Question: Which Potency does the source give for `CCN1C(=O)C(CC(=O)NC)N(NC(=O)c2ccccc2)C1=S` (stereo unspecified) here?
Answer: Its Potency is inconclusive: 3.16 µM [activator, partial curve, poor fit].

Question: With `O=c1[nH]c(=S)[nH]c(O)c1N=Nc1ccc2c(c1)OCCO2` as the molecule, how does the Potency read?
Answer: Its Potency is inconclusive: 10 µM [inhibitor, partial curve, poor fit].

Question: Which Potency does the source give for `S=C(Nc1cccc(Br)c1)N1CCn2cccc2C1c1cccnc1` (stereo unspecified) here?
Answer: Its Potency is active: 7.94 µM.

Question: With `COc1cccc(CNC(=O)c2cc(-c3cccc(OC)c3)n[nH]2)c1` as the molecule, how does the Potency read?
Answer: The Potency was “inactive”.

Question: For `O=S(=O)(c1ccc2[nH]c3c(c2c1)CCCCC3)N1CCN(c2ccccc2)CC1`, which Potency is on record?
Answer: Its Potency is inconclusive: 35.5 µM [inhibitor, single point].

Question: Which Potency does the source give for `COc1ccc(NC(=O)N2CCN(C(=O)C(Cc3ccc(F)cc3)NC(C)=O)CC2)cc1` (stereo unspecified) here?
Answer: The Potency was inconclusive: 31.6 µM [activator, single point].

Question: For `CCOC(=O)Nc1ccc2c(c1)N(C(=O)OC)c1ccccc1CC2`, which Potency is on record?
Answer: Its Potency is inconclusive: 1.3 µM [inhibitor, full curve].

Question: With `Cc1ccc(-c2csc(N)n2)s1` as the molecule, how does the Potency read?
Answer: The Potency was “inactive”.

Question: Which Potency does the source give for `COC(=O)c1sccc1NC(=S)Nc1ccc(C)cc1` here?
Answer: Its Potency is inconclusive: 1.26 µM [inhibitor, single point].

Question: Which Potency does the source give for `Cc1ccc2cc3c(nc2c1)OCC3` here?
Answer: The Potency was “inactive”.

Question: With `CCC[n+]1cn(/C(C(=S)Nc2cccc(Cl)c2C)=C(/[O-])c2ccc(OC)c(OC)c2)c2ccccc21` as the molecule, how does the Potency read?
Answer: The Potency was inconclusive: 3.55 µM [inhibitor, partial curve, poor fit].

Question: For `Cn1c(SCC(=O)Nc2sccc2C#N)nnc1-c1ccccc1`, which Potency is on record?
Answer: Its Potency is “inactive”.

Question: Which Potency does the source give for `COCCCNC(=O)CCC(=O)N1Cc2ccccc2Oc2ncccc21` here?
Answer: The Potency was “inactive”.

Question: Which Potency does the source give for `N#Cc1c(-c2ccc(F)cc2)cc(-c2cccnc2)nc1N` here?
Answer: The Potency was “inactive”.

Question: For `CC(=O)Nc1c(Cl)cc2c(c1Cl)Cc1ccccc1-2`, which Potency is on record?
Answer: Its Potency is “inactive”.

Question: For `CC(=O)N1CCC(=NNc2ncc(C(F)(F)F)cc2Cl)CC1`, which Potency is on record?
Answer: The Potency was inconclusive: 35.5 µM [inhibitor, single point].

Question: Which Potency does the source give for `CCC1CCCCN1CCCNC(=O)CN1C(=O)CSc2ccc(S(=O)(=O)N3CCC(C)CC3)cc21` (stereo unspecified) here?
Answer: The Potency was “inactive”.

Question: Which Potency does the source give for `CC(C)OP(=O)(OC(C)C)C(Nc1cccc(C(=O)O)c1)c1ccccc1` (stereo unspecified) here?
Answer: Its Potency is “inactive”.

Question: With `Cc1c(Cc2ccc3c(c2)OCO3)sc(NC(=O)C2CC2)c1C(N)=O` as the molecule, how does the Potency read?
Answer: Its Potency is active: 8.91 µM.

Question: Which Potency does the source give for `O=C(Oc1c(CN2CCOCC2)cc(Cl)c2cccnc12)c1ccccc1` here?
Answer: The Potency was inconclusive: 12.6 µM [inhibitor, single point].

Question: For `O=C(N/N=C/c1c(O)ccc2ccccc12)c1ccc(CO)nc1`, which Potency is on record?
Answer: The Potency was inconclusive: 11.2 µM [inhibitor, partial curve, poor fit].

Question: Which Potency does the source give for `COc1ccccc1OCCNS(=O)(=O)c1ccc2oc3ccccc3c2c1` here?
Answer: Its Potency is “inactive”.

Question: For `Cc1ccc(S(=O)(=O)Nc2ccc3cc([N+](=O)[O-])ccc3c2[N+](=O)[O-])cc1`, which Potency is on record?
Answer: The Potency was inconclusive: 35.5 µM [inhibitor, single point].

Question: For `CC(NC(=O)Cc1ccc(-c2ccccc2)cc1)c1ccccc1` (stereo unspecified), which Potency is on record?
Answer: The Potency was inconclusive: 15.8 µM [inhibitor, single point].

Question: For `Clc1ccc2c(N/N=C/c3ccc(Br)cc3)ccnc2c1`, which Potency is on record?
Answer: The Potency was inconclusive: 35.5 µM [inhibitor, single point].

Question: For `CCc1ccc(S(=O)(=O)Nc2ccc(-c3ccc(N4CCCCCC4)nn3)cc2)cc1`, which Potency is on record?
Answer: Its Potency is “inactive”.

Question: Which Potency does the source give for `Cc1nnc2n(-c3ccccc3)c(=O)c3c4c(sc3n12)COC(C(C)C)C4` (stereo unspecified) here?
Answer: Its Potency is “inactive”.

Question: For `CCCCn1c(/N=C/c2ccc3c(c2)OCO3)nc2ccccc21`, which Potency is on record?
Answer: The Potency was inconclusive: 7.3 µM [activator, partial curve, poor fit].

Question: With `Cc1cccc(OCC(O)CN2CCNCC2)c1` (stereo unspecified) as the molecule, how does the Potency read?
Answer: The Potency was inconclusive: 17.8 µM [activator, single point].

Question: Which Potency does the source give for `O=C(NCC(c1ccccc1)c1ccccc1)c1nn(-c2ccccc2Cl)nc1CO` here?
Answer: The Potency was inconclusive: 1.58 µM [inhibitor, full curve, poor fit].

Question: For `Cc1ccc(-c2csc(NC(=O)C3CCN(S(=O)(=O)c4cccs4)CC3)n2)cc1`, which Potency is on record?
Answer: The Potency was inconclusive: 5.17 µM [inhibitor, full curve, poor fit].

Question: With `Cc1ccc(Cl)cc1N1CCN(C(=O)c2ccc3c(c2)N(Cc2ccccc2F)C(=O)c2ccccc2S3(=O)=O)CC1` as the molecule, how does the Potency read?
Answer: The Potency was inconclusive: 35.5 µM [activator, partial curve, poor fit].

Question: Which Potency does the source give for `Cc1nc2c(C(=O)N(C)Cc3ccccc3)c[nH]n2c(=O)c1Cc1ccc(Cl)cc1` here?
Answer: Its Potency is “inactive”.

Question: Which Potency does the source give for `COc1ccc(CCn2c(N)c(C(=O)NCc3ccco3)c3nc4ccccc4nc32)cc1` here?
Answer: Its Potency is inconclusive: 13 µM [inhibitor, partial curve].

Question: With `Nc1cc(F)ccc1N1CCCCCC1` as the molecule, how does the Potency read?
Answer: The Potency was “inactive”.

Question: For `Cc1cc(C)n(-c2nc3c(c(=O)[nH]c(=O)n3C)n2CCc2ccccc2)n1`, which Potency is on record?
Answer: The Potency was inconclusive: 39.8 µM [inhibitor, partial curve, poor fit].

Question: With `Cc1ccccc1CCN(CC(=O)NCc1ccc(F)cc1)C(=O)c1csnn1` as the molecule, how does the Potency read?
Answer: The Potency was inconclusive: 5.62 µM [inhibitor, single point].

Question: With `CN(Cc1ccccc1)S(=O)(=O)c1ccc(S(=O)(=O)N(Cc2ccc(F)cc2)C2CCCC2)cc1` as the molecule, how does the Potency read?
Answer: The Potency was inconclusive: 29.1 µM [inhibitor, single point].

Question: With `CCOC(=O)[C@@]12[C@@H]3[C@@H](CCN3C(=O)N[C@H]1c1ccccc1)C2(C)C` as the molecule, how does the Potency read?
Answer: The Potency was inconclusive: 1.19 µM [inhibitor, single point].

Question: With `CC(=O)Nc1ccc2c(c1)N(C(=O)CN(C)C)c1ccccc1CC2` as the molecule, how does the Potency read?
Answer: The Potency was “inactive”.

Question: For `O=C(Cc1cccc2ccccc12)N/N=C/c1ccc(OC(=O)/C=C/c2ccco2)cc1`, which Potency is on record?
Answer: Its Potency is inconclusive: 35.5 µM [inhibitor, single point].

Question: For `N#CC1=C(N)Oc2cc3c(cc2C1c1ccc(Cl)cc1)OCO3` (stereo unspecified), which Potency is on record?
Answer: The Potency was inconclusive: 20.6 µM [inhibitor, partial curve, poor fit].

Question: For `O=C(N/N=C(\Cc1ncc[nH]1)c1ccccc1)c1ccncc1`, which Potency is on record?
Answer: The Potency was inconclusive: 35.5 µM [inhibitor, single point].

Question: For `COc1ccc(-c2csc(NC(=O)C3CCCO3)n2)cc1` (stereo unspecified), which Potency is on record?
Answer: Its Potency is inconclusive: 32.6 µM [inhibitor, single point].

Question: Which Potency does the source give for `Cc1c(C(=O)Nc2cccnc2)oc2ccc(Br)cc12` here?
Answer: Its Potency is inconclusive: 35.5 µM [inhibitor, single point].

Question: With `C[C@H]1CC[C@H]2C(=O)O[C@H](COc3ccc(C(C)(C)C)cc3)CN2[C@H]1c1ccc(Br)cc1` as the molecule, how does the Potency read?
Answer: The Potency was inconclusive: 5.96 µM [inhibitor, single point].

Question: For `Cc1ccc(C(=O)NC2CCS(=O)(=O)C2)cc1S(=O)(=O)N1CCCC1` (stereo unspecified), which Potency is on record?
Answer: The Potency was inconclusive: 0.398 µM [activator, full curve, poor fit].

Question: Which Potency does the source give for `Cc1ccc(S(=O)(=O)NCCCCCC(=O)N(C)C)cc1` here?
Answer: The Potency was “inactive”.

Question: For `O=C(c1ccc(Br)cc1)c1cc([N+](=O)[O-])ccc1N1CCCCC1`, which Potency is on record?
Answer: Its Potency is inconclusive: 1.83 µM [inhibitor, full curve, poor fit].
